Earlier results on 23 compounds are cited in patent US10610500B2, “Chemosensory receptor ligand-based therapies” (Anji Pharma (US) LLC, priority 2011, dated 2020).

The conditions of this series: phytonutrients in common plant foods.
For the compound `C=CCC(=NOS(=O)(=O)O)S[C@@H]1O[C@H](CO)[C@@H](O)[C@H](O)[C@H]1O` (stereo in doubt) [Sinigrin], the Taste quality entry is “Bitter”.
For `C[S+]([O-])CCCN=C=S` (centres unmarked) [3-Methyl-sulfinylpropyl isothiocyanate], the Taste quality result is recorded as “Acrid mustard oils”.
As to `C[S+]([O-])CCCCN=C=S` (centres unmarked) [4-Methylsulfinyl butyl isothiocyanate], the Taste quality result is “Acrid mustard oils”.
`C=CCN=C=S` [Allyl-isothiocyanate]: the Taste quality result is on record as “Acrid mustard oils;”.
Take `S=C=NCc1ccccc1` [Benzyl isothiocyanate]: the Taste quality entry was “Acrid mustard oils;”.
As for `O=c1c(-c2ccc(O)cc2)coc2cc(O[C@@H]3O[C@H](CO)[C@@H](O)[C@H](O)[C@H]3O)ccc12` [Daidzin], the Taste quality result is on record as “Astringent”.
For the compound `O=C(O[C@@H]1Cc2c(O)cc(O)cc2O[C@@H]1c1ccc(O)c(O)c1)c1cc(O)c(O)c(O)c1` [Epicatechin gallate], the Taste quality entry was “Bitter and astringent”.
Regarding `O=C(O[C@@H]1Cc2c(O)cc(O)cc2O[C@@H]1c1cc(O)c(O)c(O)c1)c1cc(O)c(O)c(O)c1` [Epigallocatechin gallate], the Taste quality entry is “Bitter with”.
As for `Oc1cc(O)c2c(c1)O[C@H](c1cc(O)c(O)c(O)c1)[C@H](O)C2` [Epigallocatechin], the Taste quality result was “Bitter with”.
`O=c1c(-c2ccc(O)cc2)coc2cc(O)cc(O)c12` [Genistein]: the Taste quality result was “Bitter or astringent”.
For `O=c1c(-c2ccc(O)cc2)coc2cc(O[C@@H]3O[C@H](CO)[C@@H](O)[C@H](O)[C@H]3O)cc(O)c12` [Genistin], the Taste quality entry is listed as “Astringent”.
Regarding `O=S(=O)(O)ON=C(Cc1c[nH]c2ccccc12)S[C@@H]1O[C@H](CO)[C@@H](O)[C@H](O)[C@H]1O` [Glucobrassicin], the Taste quality entry is on record as “Bitter”.
For `C=CC1CNC(=S)O1` (centres unmarked) [Goitrin, Goitrin 5-vinyl-2-oxazolidine thione], the Taste quality entry is “Bitter”.
Turning to `CC1(C)O[C@H]2CC(=O)OC[C@]23[C@H]2CC[C@@](C)([C@@H](O[C@@H]4O[C@H](CO)[C@@H](O)[C@H](O)[C@H]4O)c4ccoc4)[C@@]4(O[C@@H]4C(=O)O)[C@]2(C)C(=O)C[C@@H]13` [Limonin glucoside], the Taste quality result was “Tasteless”.
`CC1(C)O[C@H]2CC(=O)OC[C@]23[C@H]2CC[C@@]4(C)[C@H](c5ccoc5)OC(=O)[C@H]5O[C@]54[C@]2(C)C(=O)C[C@@H]13` [Limonin]: the Taste quality entry was “Bitter”.
In the case of `C[C@@H]1O[C@@H](O[C@H]2[C@H](Oc3cc(O)c4c(c3)O[C@H](c3ccc(O)cc3)CC4=O)O[C@H](CO)[C@@H](O)[C@@H]2O)[C@H](O)[C@H](O)[C@H]1O` [Naringin], the Taste quality entry is listed as “Bitter”.
For `COc1ccc(-c2cc(=O)c3c(OC)c(OC)c(OC)c(OC)c3o2)cc1OC` [Nobiletin], the Taste quality entry is on record as “Bitter”.
Regarding `CC(=O)O[C@H]1CC(=O)OC(C)(C)[C@@H]2CC(=O)[C@]3(C)[C@H](CC[C@@]4(C)[C@H](c5ccoc5)OC(=O)[C@H]5O[C@]543)[C@@]12C` [Nomilin], the Taste quality result is recorded as “Bitter”.
On to `C=C[C@H](O)CC(=NOS(=O)(=O)O)S[C@@H]1O[C@H](CO)[C@@H](O)[C@H](O)[C@H]1O` [Progoitrin], for which the Taste quality result is recorded as “Bitter”.
As to `O=c1c(O)c(-c2ccc(O)c(O)c2)oc2cc(O)cc(O)c12` [Quercetin], the Taste quality result was “Bitter”.
On to `COc1ccc(-c2cc(=O)c3c(OC)c(OC)c(OC)cc3o2)cc1OC` [Sinensetin], for which the Taste quality result is “Bitter”.
On to `COc1ccc(-c2cc(=O)c3c(OC)c(OC)c(OC)c(OC)c3o2)cc1` [Tangeretin], for which the Taste quality entry is reported as “Bitter”.
As to `O=c1c(-c2ccc(O)cc2)coc2cc(O)ccc12` [daidzein], the Taste quality entry is reported as “Bitter or astringent”.
